Data from paper doi:10.1101/2020.12.18.423453.
These are yes or no findings as the source states them, for the method shown. For some assays here: In cells and extracts the contact can be indirect. Some entries that bind do so weakly or less than the wild type. For some assays here: Tags and fused reporters may be left off the sequences shown.

B1: RodZ, BACTH fusion (protein, UniProt Q8DMX7 1-276)
chain: MTSMRKKTIGEVLRLARINQGLSLDELQKKTEIQLDMLEAMEADDFDQLPSPFYTRSFLKKYAWAVELDDQIVLDAYDSGSMITYEEVDVDEDELTGRRRSSKKKKKKTSFLPLFYFILFALSILIFVTYYVWNYIQTQPEEPSLSNYSVVQSTSSTSSVPHSSSSSSSSIESAISVSGEGNHVEIAYKTSKETVKLQLAVSDVTSWVSVSESELEGGVTLSPKKKSAEATVATKSPVTITLGVVKGVDLTVDNQTVDLSKLTAQTGQITVTFTKN

Legend:
[1] = molecular target: Flag-tagged EloR (Streptococcus pneumoniae R6); test: co-IP
[2] = molecular target: EloR (Elongasome Regulating protein), BACTH fusion (Streptococcus pneumoniae R6); test: two-hybrid

Molecule	binding [1]	binding [2]
GFP-tagged HlpA (from UniProt A0ACD7PRL6 1-91)	no binding	–
B1	–	binds
